Some of the results follow. These are further read-outs of the screen, such as a control signal, another cell line or another target. No call is given for them. Compounds called inactive in the main read-out are mostly missing here. The note in brackets gives the kind of curve behind each potency; many fits are weak.
Assay: qHTS Assay for Lipid Storage Modulators in Drosophila S3 Cells;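 on cell number change: cells counted by Cell Tracker Red CMTPX staining in the red channel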
Conditions: BODIPY lipid droplet fluorescence, 18-24 h; for cell number change: measured here: cell count max response, cells fed with added oleic acid
How it was run: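 Laser-scanning cytometry quantifies lipid droplet accumulation (500–530 nm total intensity; droplet/cell object ratio) in oleic acid-fed (400 uM added) Drosophila S3 cells treated with a concentration series. 20 uM Triacsin C defined 100% inhibition.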

[1] = measured here: cell number channel AC50, cells fed with added oleic acid
[2] = measured here: lipid fluorescence (Fed channel) AC50, cells fed with added oleic acid

Row | Structure (SMILES) | cell number change [%] | AC50 [1] | AC50 [2]
1 | N=c1sccn1CC(=O)Nc1ccccc1Cc1ccccc1 | -4.38 | – | –
2 | COc1ccccc1-c1nnc(SCC(=O)c2c(N)n(C3CC3)c(=O)[nH]c2=O)n1C | -3.82 | – | –
3 | Cc1ccc(S(=O)(=O)NCC(C)NS(C)(=O)=O)cc1 (centres undefined) | -65.4 | 16.4 µM [falling, single point] | –
4 | O=C(O)c1cnc(-c2ccccc2)nc1-c1ccccc1 | -5.29 | – | –
5 | Cc1noc(C)c1COc1ccccc1C(=O)N(C)CC(=O)Nc1ccc(F)c(F)c1F | 20.3 | – | 0.082 µM [rising, full curve, poor fit]
6 | O=C(Nc1ccc(-c2nc3ccccc3s2)cc1)C1=COCCO1 | 1.63 | – | 29.1 µM [rising, single point]
7 | CC(O)CCC(=O)NCCNC(=O)CCC(C)O (centres undefined) | -30.3 | 1.64 µM [falling, single point] | 0.731 µM [falling, partial curve]
8 | Fc1ccc(N2CCN(Cc3cnc(Cl)s3)CC2)cc1 | 13.8 | 7.31 µM [falling, partial curve, poor fit] | 0.231 µM [falling, partial curve]
9 | CCCn1c(SCc2cc(=O)oc3ccc4ccccc4c23)n[nH]c1=O | -13.5 | – | –
10 | CCNc1nc(NCC)nc(Nn2cnnc2)n1 | 15 | – | 0.116 µM [falling, full curve, poor fit]
11 | COC(=O)CCN(c1ccccc1)S(=O)(=O)c1ccc(OC)cc1 | 0.278 | 0.651 µM [falling, full curve, poor fit] | 4.11 µM [falling, single point]
12 | Cc1nc2ccc(Br)cc2c2c1CC(CBr)O2 (centres undefined) | -35.4 | 16.4 µM [falling, single point] | –
13 | CCOc1cc2c(C#N)c(N3CCOCC3)nc(N)c2c(N)n1 | -39.4 | 0.0058 µM [falling, full curve, poor fit] | 0.651 µM [falling, single point]
14 | O=C(Cn1nc(Cl)nc1Cl)c1ccccc1 | 5.83 | – | –
15 | COc1ccc(S(=O)(=O)Nc2c(C)n(C)n(-c3ccccc3)c2=O)c(Cl)c1Cl | 5.47 | – | 29.1 µM [rising, single point]
16 | Cn1c(=O)cc(-c2ccccc2)c2ccccc21 | – | 6.51 µM [rising, single point] | –
17 | COc1ccc(OCc2cc(C(=O)NC3CCc4ccccc43)no2)c(Cl)c1 (centres undefined) | -11.6 | – | 0.58 µM [falling, single point]
18 | Cc1nnc(Nc2ccc3c(c2)OCO3)c2ccccc12 | -2.89 | – | 0.0291 µM [rising, full curve, poor fit]
19 | Cc1cc(C)n2nc(C(=O)Nc3nccs3)nc2n1 | -42.8 | 4.11 µM [falling, full curve] | 0.651 µM [falling, partial curve]
20 | CCOC(=O)CSc1nnc(CNC(=O)c2ccc([N+](=O)[O-])cc2)n1C | 48.9 | 0.0058 µM [falling, full curve, poor fit] | –

Row | Structure (SMILES) | cell number change [%] | AC50 [1] | AC50 [2]
21 | CCCCCC(=O)N[C@@H](c1ccccc1)[C@@H](O)C(=O)O[C@H]1C[C@@]2(O)[C@@H](OC(=O)c3ccccc3)C3[C@](C)(C(=O)[C@H](OC(C)=O)C(=C1C)C2(C)C)[C@@H](O)C[C@H]1OC[C@@]31OC(C)=O (some centres undefined) | -11.3 | – | –
22 | CCc1c(C(=O)NCCc2ccc(OC)c(OC)c2)[nH]c(C)c1C(C)=O | 259 | 14.6 µM [rising, partial curve] | 16.4 µM [rising, partial curve]
23 | COc1ccc(CCN(Cc2cc3cc(C)c(C)cc3nc2Cl)C(=O)C2CC2)cc1 | 6.13 | – | 6.51 µM [falling, single point]
24 | N#Cc1ccccc1OCC(=O)OCCCOC(=O)COc1ccccc1C#N | 13.5 | – | 29.1 µM [falling, single point]
25 | CN(Cc1cccs1)C(=O)Cn1cnc2ccccc2c1=O | 16.7 | – | –
26 | O=C(NCC1CCCO1)C(c1cccs1)N(Cc1cccs1)C(=O)c1ccc(-c2ccccc2)[nH]1 (centres undefined) | 4.37 | – | 2.06 µM [rising, full curve, poor fit]
27 | Cc1ccc2nc3c(cc(C(=O)NCC4CCCO4)c(=N)n3CC3CCCO3)c(=O)n2c1 (centres undefined) | 34.3 | 5.8 µM [rising, partial curve] | –
28 | Cc1cc2ncc(-c3cccs3)nc2cc1C | 101 | 14.6 µM [rising, partial curve, poor fit] | 2.91 µM [rising, single point]
29 | COC(=O)c1sc(N)c(C(=O)OC)c1CSc1nnc(-c2ccccc2Cl)n1C | 37.1 | 1.64 µM [rising, full curve] | 0.00517 µM [falling, full curve, poor fit]
30 | C[C@]12CC[C@@H]3c4ccc(O)cc4CC[C@H]3[C@@H]1CC[C@@H]2O | 2.61 | – | 20.6 µM [falling, partial curve]
31 | O=C(NC1(C(F)(F)F)C(=O)Nc2c1c(=O)[nH]c(=O)n2Cc1ccco1)C1CCCCC1 (centres undefined) | -80.8 | 18.4 µM [falling, single point] | 0.58 µM [rising, single point]
32 | O=C(Cc1ccccc1)c1c[nH]c(C(=O)NCCCN2CCOCC2)c1 | -3.39 | 0.92 µM [falling, full curve, poor fit] | 1.46 µM [falling, partial curve]
33 | Fc1ccc(C2c3cccn3CCN2C(=S)Nc2cccc(F)c2)cc1 (centres undefined) | 20.4 | 0.517 µM [falling, single point] | –
34 | CCOC(=O)c1[nH]c(C)c(C(=O)OCC(=O)NC(=O)NC(C)(C)C)c1C | 1.79 | – | 1.64 µM [rising, full curve]
35 | CC1CCC(NC(=O)COC(=O)C2=NN(c3ccccc3)C(=O)CC2)CC1 (centres undefined) | -2.9 | – | –
36 | COc1cc(OC)cc(C(=O)OCC(=O)Nc2cccc(C(C)=O)c2)c1 | 36.3 | 23.1 µM [rising, partial curve, poor fit] | 6.51 µM [rising, single point]
37 | COc1ccc(OC)c(C(=O)CSc2nnc(-c3cccs3)o2)c1 | -0.593 | 1.84 µM [rising, partial curve] | –
38 | C=CCc1ccc(OCCOc2ccc(/C=N/n3cnnc3)cc2OCC)c(OC)c1 | -4.34 | – | 25.9 µM [rising, partial curve, poor fit]
39 | Cc1ccc(S(=O)(=O)N2CCCCC2)c2nsnc12 | -11.8 | – | –
40 | COC(=O)/C(C#N)=C/c1c(N2CCN(c3ccccc3)CC2)nc2c(C)cccn2c1=O | 2.78 | – | –

Reformatted: results already given.
Row	Structure (SMILES)	cell number change [%]	AC50 [1]	AC50 [2]
30	C[C@]12CC[C@@H]3c4ccc(O)cc4CC[C@H]3[C@@H]1CC[C@@H]2O	2.61	–	20.6 µM [falling, partial curve]
31	O=C(NC1(C(F)(F)F)C(=O)Nc2c1c(=O)[nH]c(=O)n2Cc1ccco1)C1CCCCC1 (centres undefined)	-80.8	18.4 µM [falling, single point]	0.58 µM [rising, single point]
32	O=C(Cc1ccccc1)c1c[nH]c(C(=O)NCCCN2CCOCC2)c1	-3.39	0.92 µM [falling, full curve, poor fit]	1.46 µM [falling, partial curve]

Remaining list, next part.

Row | Structure (SMILES) | cell number change [%] | AC50 [1] | AC50 [2]
41 | Cc1ccc(Nc2nc(N)c([N+](=O)[O-])c(N3CCOCC3)n2)cc1 | -1.99 | – | 4.11 µM [rising, single point]
42 | O=C(O)CCC(=O)NN1C(=O)c2ccccc2NC1c1ccc(F)cc1 (centres undefined) | -38.9 | – | –
43 | Cc1ccc(NC(=O)c2cc(-n3cnnc3)ccc2Cl)c(C)c1 | -1.3 | – | 2.59 µM [rising, partial curve, poor fit]
44 | Cc1ccsc1/C=N/NC(=O)CNC(=O)c1c(F)cccc1Cl | -2.97 | – | –
45 | CN(C)CCCn1c2c(c(SCC(=O)Nc3ccc4c(c3)OCO4)nc1=O)CCCC2 | -13.7 | – | 13 µM [rising, partial curve]
46 | COc1ccc(S(=O)(=O)N2CCN=C2SCc2cccc(C)c2)cc1 | 28 | – | 2.82 µM [rising, partial curve, poor fit]
47 | O=C(Nc1nnc(C2CC2)s1)c1cc(S(=O)(=O)N2CCCCC2)ccc1N1CCOCC1 | 15.5 | – | 10.3 µM [rising, partial curve]
48 | Cc1cc(C)cc(NC(=O)C2CCCN(S(=O)(=O)c3cnc[nH]3)C2)c1 (centres undefined) | 35.9 | 0.058 µM [rising, full curve, poor fit] | –
49 | CCC(C(=O)OCC(=O)c1ccc(OC)cc1OC)c1ccccc1 (centres undefined) | -35 | 16.4 µM [falling, single point] | –
50 | CC(=O)NC(c1ccco1)c1cc(Cl)c2ccc(N(C)C)nc2c1O (centres undefined) | -11.7 | – | 29.1 µM [rising, single point]
51 | COc1ccc(NS(=O)(=O)c2ccc3ccccc3c2)c2ncccc12 | -14.5 | – | 35.5 µM [falling, single point]
52 | Clc1ccc2c(c1)C(C1=NCCN1)c1ccccc1CS2 (centres undefined) | 47.1 | 0.82 µM [rising, full curve, poor fit] | 29.1 µM [rising, single point]
53 | Cc1nn(C)c(C(=O)NC(=S)Nc2ccc([N+](=O)[O-])cc2)c1Cl | -39 | 9.2 µM [falling, partial curve] | –
54 | Clc1ccccc1CN(Cc1ccco1)Cc1nnnn1C1CCCC1 | -11.6 | – | 8.2 µM [falling, partial curve, poor fit]
55 | O=C(O)CSc1nc(-c2ccccc2)nc2c1CCCC2 | -43.1 | 16.4 µM [falling, single point] | 29.1 µM [falling, single point]
56 | O=Cc1[nH]c2ccccc2c1N(C(=O)CCl)c1ccc([N+](=O)[O-])cc1 | -18.1 | 4.11 µM [falling, single point] | 3.66 µM [falling, full curve]
57 | Cc1cc(NC(=O)CSc2nnc(-c3ccc(S(=O)(=O)N4CCCC4)cc3)n2C)no1 | 3.23 | – | 0.0291 µM [falling, full curve]
58 | CC(=O)Nc1ccc(NC(=O)CSc2nnc(-c3cccs3)n2C)cc1 | 14.1 | – | –
59 | CC1=C(C#N)C(Nc2cc(C)ccn2)(C(F)(F)F)C(=O)N1 (centres undefined) | 37.2 | 7.31 µM [rising, partial curve] | 3.66 µM [rising, single point]

Reference: PubChem BioAssay AID2685 (National Center for Advancing Translational Sciences (NCATS), 2010)
